# Measured values reported in paper PMC8905599.
# Sequences of proteins named here, by UniProt entry; tags and fusion partners are left off. Residues count along the entry.
# UniProt Q9QUK6, residues 26-835: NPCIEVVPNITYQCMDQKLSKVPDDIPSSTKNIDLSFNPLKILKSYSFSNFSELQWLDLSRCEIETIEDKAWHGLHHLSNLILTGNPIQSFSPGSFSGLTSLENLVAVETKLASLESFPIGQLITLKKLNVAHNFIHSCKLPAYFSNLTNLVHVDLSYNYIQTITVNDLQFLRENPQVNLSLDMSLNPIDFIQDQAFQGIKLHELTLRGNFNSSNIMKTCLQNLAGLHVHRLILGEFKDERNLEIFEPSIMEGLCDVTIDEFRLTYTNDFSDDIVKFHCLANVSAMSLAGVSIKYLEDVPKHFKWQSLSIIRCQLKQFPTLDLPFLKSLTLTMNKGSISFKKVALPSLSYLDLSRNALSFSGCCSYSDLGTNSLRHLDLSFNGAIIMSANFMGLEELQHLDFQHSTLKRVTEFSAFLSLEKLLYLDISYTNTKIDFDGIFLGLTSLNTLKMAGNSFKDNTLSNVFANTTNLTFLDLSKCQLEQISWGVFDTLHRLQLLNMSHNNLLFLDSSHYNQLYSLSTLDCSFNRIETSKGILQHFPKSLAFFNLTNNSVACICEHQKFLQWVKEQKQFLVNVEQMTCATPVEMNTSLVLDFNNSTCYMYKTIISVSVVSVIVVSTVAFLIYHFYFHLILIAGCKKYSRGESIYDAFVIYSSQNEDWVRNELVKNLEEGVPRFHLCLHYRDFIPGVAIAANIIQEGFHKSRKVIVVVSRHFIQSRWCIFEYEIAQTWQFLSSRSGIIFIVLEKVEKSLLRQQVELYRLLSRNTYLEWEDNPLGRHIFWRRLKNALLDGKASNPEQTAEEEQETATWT
# UniProt P22366: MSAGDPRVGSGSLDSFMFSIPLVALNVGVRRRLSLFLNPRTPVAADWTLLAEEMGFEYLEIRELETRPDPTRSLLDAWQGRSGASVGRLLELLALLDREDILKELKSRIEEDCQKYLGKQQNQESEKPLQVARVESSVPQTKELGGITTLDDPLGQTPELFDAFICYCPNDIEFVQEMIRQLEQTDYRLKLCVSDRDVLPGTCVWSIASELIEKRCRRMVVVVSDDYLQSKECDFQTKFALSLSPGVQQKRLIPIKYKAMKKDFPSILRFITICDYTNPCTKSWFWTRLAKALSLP
# No constants are given. Whether binding was seen depends on the method and setting. In cells and extracts the contact can be indirect. Some results given as binding are weak or reduced against the parent protein; the word gives no strength.
# B1: myeloid differentiation protein 2 (protein, UniProt Q9JHF9 19-160)
# chain: EKQQWFCNSSDAIISYSYCDHLKFPISISSEPCIRLRGTNGFVHVEFIPRGNLKYLYFNLFISVNSIELPKRKEVLCHGHDDDYSFCRALKGETVNTSIPFSFEGILFPKGHYRCVAEAIAGDTEEKLFCLNFTIIHRRDVN
# Biological target: Toll-like receptor 4 (mouse (endogenous in RAW 264.7)) (UniProt Q9QUK6)
# Test: co-IP; anti-TLR4 antibody and magnetic beads on RAW 264.7 lysate; cells treated with LPS (20 ng/ml) and indicated concentrations of pentamidine for 1 h; lysis buffer 25 mM Tris pH 8.0, 150 mM KCl, 5 mM EDTA, 0.5% NP-40; MD2, TLR4 and MyD88 detected by Western blotting
molecule,measurement,value
MyD88 (from UniProt P22366 1-296),binding,binds
B1,binding,binds
